Laboratory results: patent US6727278B1, “Pharmaceutically active agents that impede amyloid formation in vivo” (DMS Pharmaceutical Inc., priority 1986, dated 2004)

Tested on: human DMS
Assay: In vivo assay: amyloid formation induced by intracerebral injection of human DMS with the compound, Congo Red histology
Design: species or system Male Wistar rats
[1] = in-tissue concentration 10^−5 − 10^−6M, rat cerebral cortex, human DMS co-injected

CCc1nc(N)nc(N)c1-c1ccc(Cl)cc1 [Daraprim, Pyrimethamine]
Mean Lesion Area Examined [1]: 10.1 mm^2

Cc1noc(NS(=O)(=O)c2ccc(N)cc2)c1C [Gantrisin, Sulfisoxazole]
Mean Lesion Area Examined (in-tissue concentration 10^−2M): 10.4 mm^2 | Mean Lesion Area Examined [1]: 10.8 mm^2

OCCN(CCO)c1nc(N2CCCCC2)c2nc(N(CCO)CCO)nc(N3CCCCC3)c2n1 [Persantine, 2,6-bis-(diethanolamino)-4,8-dipiperidinopyrimido-(5,4-d)-pyrimidine]
Mean Lesion Area Examined (in-tissue concentration 10^−2M): 11.0 mm^2 | Mean Lesion Area Examined [1]: 9.4 mm^2
